Measurements taken from paper PMC12418378.
Weaker means in comparison with the reference protein, sequence or condition of that experiment.

Chains of the proteins cited; added tags and fusions are not shown.
UniProt O60016, whole entry K109Q/K110Q/K113Q/K114Q/K122Q/R123Q/R126Q/K127Q: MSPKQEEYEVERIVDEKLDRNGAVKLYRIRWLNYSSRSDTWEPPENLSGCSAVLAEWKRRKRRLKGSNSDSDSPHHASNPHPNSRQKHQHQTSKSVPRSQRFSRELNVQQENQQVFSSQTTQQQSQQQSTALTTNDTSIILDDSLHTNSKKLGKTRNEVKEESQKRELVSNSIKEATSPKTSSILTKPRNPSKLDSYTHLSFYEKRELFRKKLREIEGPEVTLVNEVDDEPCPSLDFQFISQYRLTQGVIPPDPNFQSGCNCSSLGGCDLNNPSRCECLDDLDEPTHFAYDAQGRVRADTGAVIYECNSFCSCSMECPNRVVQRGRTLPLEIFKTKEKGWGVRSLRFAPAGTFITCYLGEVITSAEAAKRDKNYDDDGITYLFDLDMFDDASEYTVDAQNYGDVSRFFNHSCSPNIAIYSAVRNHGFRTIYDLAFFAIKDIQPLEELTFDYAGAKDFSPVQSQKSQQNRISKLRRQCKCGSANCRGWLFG
UniProt O60016, whole entry R85Q/K87Q/K94Q/R98Q/R101Q/R104Q: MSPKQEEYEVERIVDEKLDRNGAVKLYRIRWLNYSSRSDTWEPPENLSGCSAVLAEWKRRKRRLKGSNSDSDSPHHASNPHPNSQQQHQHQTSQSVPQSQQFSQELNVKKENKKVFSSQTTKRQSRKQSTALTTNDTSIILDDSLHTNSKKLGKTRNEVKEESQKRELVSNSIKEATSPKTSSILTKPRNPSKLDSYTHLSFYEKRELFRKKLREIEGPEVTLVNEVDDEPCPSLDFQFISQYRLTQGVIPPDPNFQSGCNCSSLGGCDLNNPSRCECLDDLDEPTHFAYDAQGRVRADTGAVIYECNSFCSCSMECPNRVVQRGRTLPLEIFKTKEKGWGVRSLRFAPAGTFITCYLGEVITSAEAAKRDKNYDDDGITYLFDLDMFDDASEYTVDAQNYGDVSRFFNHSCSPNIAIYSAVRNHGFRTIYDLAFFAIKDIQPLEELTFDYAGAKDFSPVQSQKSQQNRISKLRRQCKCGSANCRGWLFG

How the values were obtained:
[1] = molecular target: Clr4 Mut2 (block C K/R>Q) K109Q,K110Q,K113Q,K114Q,K122Q,R123Q,R126Q,K127Q (Schizosaccharomyces pombe) (UniProt O60016); experiment: EMSA; conditions: EMSA: 20 mM Tris-HCl pH 7.5, 1 mM DTT, 0.1 mg/ml BSA; RNA on ice 30 min; DNA and nucleosomes 37 C 15 min; 5% native PAGE, 0.5x TBE; recombinant protein; residues 1-490; protein details: His-SUMO removed by Ulp1; label: none (SYBR Gold stain); probe letters rebuilt from the primers and the genome
[2] = molecular target: Clr4 Mut1 (block B K/R>Q) R85Q,K87Q,K94Q,R98Q,R101Q,R104Q (Schizosaccharomyces pombe) (UniProt O60016); experiment: EMSA; conditions: EMSA: 20 mM Tris-HCl pH 7.5, 1 mM DTT, 0.1 mg/ml BSA; RNA on ice 30 min; DNA and nucleosomes 37 C 15 min; 5% native PAGE, 0.5x TBE; recombinant protein; protein details: His-SUMO removed by Ulp1; label: none (SYBR Gold stain); probe letters rebuilt from the primers and the genome

“GGGUACCUUUGGGACGUGGUCUCUUGCUUUUGGCUGAAAUGUCUUCCAAAGGCUCUUUGGCUACUGGUUCCUACACAGAGAAAACCUUAGAAUGGUUUGAGAAGCAUACCGAUUUUUGCUUUGGCUUUAUAGCUGGUCGUCGAUUUCCUAACCUUCAAAGCGACUACAUAACUAUGUCCCCUGGUAUCGGCUUGGAUGUUAAAGGAGACGGGCUGGGACAGCAAUAUCGUACUCCUGAAGAAGUGAUUGUAAACUGCGGUAGCGAUAUCAUCAUUGUUGGUCGUGGAGUCUAUGGAGCUGGUCG [ura4+ RNA, 304 nt]”: binds more weakly [1]; binds more weakly [2].

“GGGAGCCUCAAGUGACUGCAUUAAAGCAUAAUACCGAAGCACUGACAUAACAGAGAGGUUCAGAAAGGAAUUUAAAGAUUGACUUUUUCGACAAACUUCAUGUUACAAGUCUUAUCGUUUGUGUUUAUAAAUCAUCAGCCUCUCUCUAUAUCUCUAUAUCUCUAUAUAUCAGAUAUAAAGAUGCAAGUUUUGAAGUAGACAUUCCGCACAAAGUCUAGUACACCAUGUCUCUUGUGCUCAGGCUGGUUGUCCUGCAAAAAUGUACAACAGGCAAAUGGAUGUUUCAUCAAAGAUGGACUCCUUUGUCUCAUACUUAUUGAUGGCGAAGCUAGAUCCGUUAUCAUCUUGAGAAAACACAUCGUUGUCUUCAGAGUAGCCC [pericentromeric repeat RNA, 379 nt]”: binds more weakly [1]; binds more weakly [2].
